Assay results from doi:10.1101/2021.08.18.456703.

Chains of the proteins cited; added tags and fusions are not shown. Lines headed by an entry give the natural chain unless they say otherwise; changes in a name come on top.
UniProt P22626: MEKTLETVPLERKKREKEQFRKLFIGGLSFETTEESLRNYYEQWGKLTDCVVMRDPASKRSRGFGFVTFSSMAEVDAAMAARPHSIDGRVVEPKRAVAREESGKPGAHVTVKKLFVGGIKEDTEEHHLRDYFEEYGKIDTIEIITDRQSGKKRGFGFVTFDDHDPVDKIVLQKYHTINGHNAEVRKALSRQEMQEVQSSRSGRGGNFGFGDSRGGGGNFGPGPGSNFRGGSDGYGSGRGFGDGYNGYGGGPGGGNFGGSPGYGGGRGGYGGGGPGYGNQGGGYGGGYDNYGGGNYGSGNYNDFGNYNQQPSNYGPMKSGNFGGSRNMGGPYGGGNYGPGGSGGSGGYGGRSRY
UniProt P67809: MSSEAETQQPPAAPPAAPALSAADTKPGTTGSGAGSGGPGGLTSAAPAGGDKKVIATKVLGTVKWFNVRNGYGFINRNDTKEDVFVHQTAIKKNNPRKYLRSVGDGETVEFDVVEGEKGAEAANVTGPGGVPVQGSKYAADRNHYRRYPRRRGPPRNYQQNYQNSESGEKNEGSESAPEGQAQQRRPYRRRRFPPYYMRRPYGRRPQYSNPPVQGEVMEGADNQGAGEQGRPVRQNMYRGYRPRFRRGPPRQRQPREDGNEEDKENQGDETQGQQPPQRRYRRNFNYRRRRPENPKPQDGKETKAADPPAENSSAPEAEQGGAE

How the values were obtained:
Test in all cases: pull-down + mass spectrometry
Conditions in all cases: cell lysate, other proteins present; protein in an extract
EEF1A1 = target: T1, EEF1A1 (UniProt P68104)
T1 sequence (looked up, limits assumed): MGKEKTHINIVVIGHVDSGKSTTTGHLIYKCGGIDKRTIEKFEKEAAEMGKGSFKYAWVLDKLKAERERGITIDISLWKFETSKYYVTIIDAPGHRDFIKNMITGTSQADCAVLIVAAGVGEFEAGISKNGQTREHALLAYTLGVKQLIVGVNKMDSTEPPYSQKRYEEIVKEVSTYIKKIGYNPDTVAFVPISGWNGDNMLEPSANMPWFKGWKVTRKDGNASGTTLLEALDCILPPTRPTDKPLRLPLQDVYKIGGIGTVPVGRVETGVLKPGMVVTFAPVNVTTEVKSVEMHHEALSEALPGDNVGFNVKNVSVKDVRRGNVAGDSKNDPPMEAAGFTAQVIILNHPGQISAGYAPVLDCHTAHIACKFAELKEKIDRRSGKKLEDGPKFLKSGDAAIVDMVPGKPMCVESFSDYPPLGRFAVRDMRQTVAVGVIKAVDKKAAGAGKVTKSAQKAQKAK

[1] = target: HNRNPA2B1 (printed HNRNA2B1) (UniProt P22626)
HNRNPM = target: T2, HNRNPM (UniProt P52272)
T2 sequence (looked up, limits assumed): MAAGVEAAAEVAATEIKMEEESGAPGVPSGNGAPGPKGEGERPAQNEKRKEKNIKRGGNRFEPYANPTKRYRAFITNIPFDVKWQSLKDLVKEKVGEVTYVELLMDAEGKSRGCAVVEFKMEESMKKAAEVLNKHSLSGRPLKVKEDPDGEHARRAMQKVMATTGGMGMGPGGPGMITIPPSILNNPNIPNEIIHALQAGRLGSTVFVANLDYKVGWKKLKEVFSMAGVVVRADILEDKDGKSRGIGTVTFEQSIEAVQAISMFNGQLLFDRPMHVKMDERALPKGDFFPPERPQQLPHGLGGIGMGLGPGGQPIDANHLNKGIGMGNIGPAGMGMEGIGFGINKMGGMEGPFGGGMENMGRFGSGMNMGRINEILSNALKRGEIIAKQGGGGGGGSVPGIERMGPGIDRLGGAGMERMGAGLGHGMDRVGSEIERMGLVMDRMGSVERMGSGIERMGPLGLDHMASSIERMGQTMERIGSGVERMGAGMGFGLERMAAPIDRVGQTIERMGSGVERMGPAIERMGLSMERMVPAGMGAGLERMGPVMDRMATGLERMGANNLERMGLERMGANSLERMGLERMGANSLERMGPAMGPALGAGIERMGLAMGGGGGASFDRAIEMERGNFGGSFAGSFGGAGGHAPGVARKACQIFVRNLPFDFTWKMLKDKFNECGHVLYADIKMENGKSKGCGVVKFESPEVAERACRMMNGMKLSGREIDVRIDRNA

SYNCRIP = target: T3, SYNCRIP (UniProt O60506)
T3 sequence (looked up, limits assumed): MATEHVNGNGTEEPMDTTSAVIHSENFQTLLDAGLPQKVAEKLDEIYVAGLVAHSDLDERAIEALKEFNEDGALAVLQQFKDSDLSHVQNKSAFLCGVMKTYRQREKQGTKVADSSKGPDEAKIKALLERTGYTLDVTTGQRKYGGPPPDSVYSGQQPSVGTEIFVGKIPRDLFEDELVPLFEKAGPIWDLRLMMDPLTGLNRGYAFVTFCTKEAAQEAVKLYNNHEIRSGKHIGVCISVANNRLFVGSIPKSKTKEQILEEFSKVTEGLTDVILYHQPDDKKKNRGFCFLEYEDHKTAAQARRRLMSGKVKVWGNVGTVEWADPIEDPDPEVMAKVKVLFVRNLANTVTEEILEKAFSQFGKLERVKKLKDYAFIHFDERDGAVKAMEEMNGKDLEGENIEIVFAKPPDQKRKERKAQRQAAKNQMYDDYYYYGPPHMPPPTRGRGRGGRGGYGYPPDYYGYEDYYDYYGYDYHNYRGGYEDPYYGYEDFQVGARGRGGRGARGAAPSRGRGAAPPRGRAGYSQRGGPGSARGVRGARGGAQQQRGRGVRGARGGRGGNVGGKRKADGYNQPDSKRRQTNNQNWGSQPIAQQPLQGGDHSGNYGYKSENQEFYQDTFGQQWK

[2] = target: YBX1 (YBOX1, Y-box protein 1) (UniProt P67809)

Measured: binding result

UCGUAGGUCAGGAAGCGGCG [M1 EXO-Code]
binds: EEF1A1 | [1] | HNRNPM | SYNCRIP | [2]

The exact form of at least one protein or probe is not confirmed. Where cells or extracts were used, other partners may take part. For some assays here: Where a protein sequence is shown, tags need not be part of it.
